# Data: the supplement of paper PMC10849652
# The chains behind the UniProt entries cited, without tags or fusion partners. Where a name states a change or a piece, a line headed by the entry shows the natural chain unless it says otherwise.
# UniProt P48739: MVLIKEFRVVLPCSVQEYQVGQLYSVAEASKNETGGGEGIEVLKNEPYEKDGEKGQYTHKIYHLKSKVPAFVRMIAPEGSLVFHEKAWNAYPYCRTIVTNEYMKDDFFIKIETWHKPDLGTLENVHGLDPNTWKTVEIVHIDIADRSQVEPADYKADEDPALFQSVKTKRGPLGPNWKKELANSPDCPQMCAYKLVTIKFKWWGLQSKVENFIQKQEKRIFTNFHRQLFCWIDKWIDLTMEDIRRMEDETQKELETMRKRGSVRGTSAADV
# UniProt Q7Z412: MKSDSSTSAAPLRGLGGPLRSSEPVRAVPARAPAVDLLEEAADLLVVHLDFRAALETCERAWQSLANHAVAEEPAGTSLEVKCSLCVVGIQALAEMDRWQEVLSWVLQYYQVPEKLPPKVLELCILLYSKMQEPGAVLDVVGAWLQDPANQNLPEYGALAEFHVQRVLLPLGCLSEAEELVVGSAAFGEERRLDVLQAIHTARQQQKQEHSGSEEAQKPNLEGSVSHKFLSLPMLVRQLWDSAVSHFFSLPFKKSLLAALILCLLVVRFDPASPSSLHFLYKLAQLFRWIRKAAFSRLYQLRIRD
# UniProt P56589: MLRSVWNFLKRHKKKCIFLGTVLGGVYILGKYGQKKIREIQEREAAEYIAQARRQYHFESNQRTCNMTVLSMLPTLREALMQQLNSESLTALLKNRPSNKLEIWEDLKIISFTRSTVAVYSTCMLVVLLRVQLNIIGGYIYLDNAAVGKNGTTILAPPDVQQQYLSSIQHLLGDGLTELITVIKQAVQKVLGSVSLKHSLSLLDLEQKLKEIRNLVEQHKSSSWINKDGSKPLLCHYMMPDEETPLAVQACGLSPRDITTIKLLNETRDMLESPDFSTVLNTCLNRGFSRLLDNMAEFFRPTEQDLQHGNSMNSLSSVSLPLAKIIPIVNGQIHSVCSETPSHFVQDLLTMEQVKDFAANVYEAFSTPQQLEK
# UniProt P08F94: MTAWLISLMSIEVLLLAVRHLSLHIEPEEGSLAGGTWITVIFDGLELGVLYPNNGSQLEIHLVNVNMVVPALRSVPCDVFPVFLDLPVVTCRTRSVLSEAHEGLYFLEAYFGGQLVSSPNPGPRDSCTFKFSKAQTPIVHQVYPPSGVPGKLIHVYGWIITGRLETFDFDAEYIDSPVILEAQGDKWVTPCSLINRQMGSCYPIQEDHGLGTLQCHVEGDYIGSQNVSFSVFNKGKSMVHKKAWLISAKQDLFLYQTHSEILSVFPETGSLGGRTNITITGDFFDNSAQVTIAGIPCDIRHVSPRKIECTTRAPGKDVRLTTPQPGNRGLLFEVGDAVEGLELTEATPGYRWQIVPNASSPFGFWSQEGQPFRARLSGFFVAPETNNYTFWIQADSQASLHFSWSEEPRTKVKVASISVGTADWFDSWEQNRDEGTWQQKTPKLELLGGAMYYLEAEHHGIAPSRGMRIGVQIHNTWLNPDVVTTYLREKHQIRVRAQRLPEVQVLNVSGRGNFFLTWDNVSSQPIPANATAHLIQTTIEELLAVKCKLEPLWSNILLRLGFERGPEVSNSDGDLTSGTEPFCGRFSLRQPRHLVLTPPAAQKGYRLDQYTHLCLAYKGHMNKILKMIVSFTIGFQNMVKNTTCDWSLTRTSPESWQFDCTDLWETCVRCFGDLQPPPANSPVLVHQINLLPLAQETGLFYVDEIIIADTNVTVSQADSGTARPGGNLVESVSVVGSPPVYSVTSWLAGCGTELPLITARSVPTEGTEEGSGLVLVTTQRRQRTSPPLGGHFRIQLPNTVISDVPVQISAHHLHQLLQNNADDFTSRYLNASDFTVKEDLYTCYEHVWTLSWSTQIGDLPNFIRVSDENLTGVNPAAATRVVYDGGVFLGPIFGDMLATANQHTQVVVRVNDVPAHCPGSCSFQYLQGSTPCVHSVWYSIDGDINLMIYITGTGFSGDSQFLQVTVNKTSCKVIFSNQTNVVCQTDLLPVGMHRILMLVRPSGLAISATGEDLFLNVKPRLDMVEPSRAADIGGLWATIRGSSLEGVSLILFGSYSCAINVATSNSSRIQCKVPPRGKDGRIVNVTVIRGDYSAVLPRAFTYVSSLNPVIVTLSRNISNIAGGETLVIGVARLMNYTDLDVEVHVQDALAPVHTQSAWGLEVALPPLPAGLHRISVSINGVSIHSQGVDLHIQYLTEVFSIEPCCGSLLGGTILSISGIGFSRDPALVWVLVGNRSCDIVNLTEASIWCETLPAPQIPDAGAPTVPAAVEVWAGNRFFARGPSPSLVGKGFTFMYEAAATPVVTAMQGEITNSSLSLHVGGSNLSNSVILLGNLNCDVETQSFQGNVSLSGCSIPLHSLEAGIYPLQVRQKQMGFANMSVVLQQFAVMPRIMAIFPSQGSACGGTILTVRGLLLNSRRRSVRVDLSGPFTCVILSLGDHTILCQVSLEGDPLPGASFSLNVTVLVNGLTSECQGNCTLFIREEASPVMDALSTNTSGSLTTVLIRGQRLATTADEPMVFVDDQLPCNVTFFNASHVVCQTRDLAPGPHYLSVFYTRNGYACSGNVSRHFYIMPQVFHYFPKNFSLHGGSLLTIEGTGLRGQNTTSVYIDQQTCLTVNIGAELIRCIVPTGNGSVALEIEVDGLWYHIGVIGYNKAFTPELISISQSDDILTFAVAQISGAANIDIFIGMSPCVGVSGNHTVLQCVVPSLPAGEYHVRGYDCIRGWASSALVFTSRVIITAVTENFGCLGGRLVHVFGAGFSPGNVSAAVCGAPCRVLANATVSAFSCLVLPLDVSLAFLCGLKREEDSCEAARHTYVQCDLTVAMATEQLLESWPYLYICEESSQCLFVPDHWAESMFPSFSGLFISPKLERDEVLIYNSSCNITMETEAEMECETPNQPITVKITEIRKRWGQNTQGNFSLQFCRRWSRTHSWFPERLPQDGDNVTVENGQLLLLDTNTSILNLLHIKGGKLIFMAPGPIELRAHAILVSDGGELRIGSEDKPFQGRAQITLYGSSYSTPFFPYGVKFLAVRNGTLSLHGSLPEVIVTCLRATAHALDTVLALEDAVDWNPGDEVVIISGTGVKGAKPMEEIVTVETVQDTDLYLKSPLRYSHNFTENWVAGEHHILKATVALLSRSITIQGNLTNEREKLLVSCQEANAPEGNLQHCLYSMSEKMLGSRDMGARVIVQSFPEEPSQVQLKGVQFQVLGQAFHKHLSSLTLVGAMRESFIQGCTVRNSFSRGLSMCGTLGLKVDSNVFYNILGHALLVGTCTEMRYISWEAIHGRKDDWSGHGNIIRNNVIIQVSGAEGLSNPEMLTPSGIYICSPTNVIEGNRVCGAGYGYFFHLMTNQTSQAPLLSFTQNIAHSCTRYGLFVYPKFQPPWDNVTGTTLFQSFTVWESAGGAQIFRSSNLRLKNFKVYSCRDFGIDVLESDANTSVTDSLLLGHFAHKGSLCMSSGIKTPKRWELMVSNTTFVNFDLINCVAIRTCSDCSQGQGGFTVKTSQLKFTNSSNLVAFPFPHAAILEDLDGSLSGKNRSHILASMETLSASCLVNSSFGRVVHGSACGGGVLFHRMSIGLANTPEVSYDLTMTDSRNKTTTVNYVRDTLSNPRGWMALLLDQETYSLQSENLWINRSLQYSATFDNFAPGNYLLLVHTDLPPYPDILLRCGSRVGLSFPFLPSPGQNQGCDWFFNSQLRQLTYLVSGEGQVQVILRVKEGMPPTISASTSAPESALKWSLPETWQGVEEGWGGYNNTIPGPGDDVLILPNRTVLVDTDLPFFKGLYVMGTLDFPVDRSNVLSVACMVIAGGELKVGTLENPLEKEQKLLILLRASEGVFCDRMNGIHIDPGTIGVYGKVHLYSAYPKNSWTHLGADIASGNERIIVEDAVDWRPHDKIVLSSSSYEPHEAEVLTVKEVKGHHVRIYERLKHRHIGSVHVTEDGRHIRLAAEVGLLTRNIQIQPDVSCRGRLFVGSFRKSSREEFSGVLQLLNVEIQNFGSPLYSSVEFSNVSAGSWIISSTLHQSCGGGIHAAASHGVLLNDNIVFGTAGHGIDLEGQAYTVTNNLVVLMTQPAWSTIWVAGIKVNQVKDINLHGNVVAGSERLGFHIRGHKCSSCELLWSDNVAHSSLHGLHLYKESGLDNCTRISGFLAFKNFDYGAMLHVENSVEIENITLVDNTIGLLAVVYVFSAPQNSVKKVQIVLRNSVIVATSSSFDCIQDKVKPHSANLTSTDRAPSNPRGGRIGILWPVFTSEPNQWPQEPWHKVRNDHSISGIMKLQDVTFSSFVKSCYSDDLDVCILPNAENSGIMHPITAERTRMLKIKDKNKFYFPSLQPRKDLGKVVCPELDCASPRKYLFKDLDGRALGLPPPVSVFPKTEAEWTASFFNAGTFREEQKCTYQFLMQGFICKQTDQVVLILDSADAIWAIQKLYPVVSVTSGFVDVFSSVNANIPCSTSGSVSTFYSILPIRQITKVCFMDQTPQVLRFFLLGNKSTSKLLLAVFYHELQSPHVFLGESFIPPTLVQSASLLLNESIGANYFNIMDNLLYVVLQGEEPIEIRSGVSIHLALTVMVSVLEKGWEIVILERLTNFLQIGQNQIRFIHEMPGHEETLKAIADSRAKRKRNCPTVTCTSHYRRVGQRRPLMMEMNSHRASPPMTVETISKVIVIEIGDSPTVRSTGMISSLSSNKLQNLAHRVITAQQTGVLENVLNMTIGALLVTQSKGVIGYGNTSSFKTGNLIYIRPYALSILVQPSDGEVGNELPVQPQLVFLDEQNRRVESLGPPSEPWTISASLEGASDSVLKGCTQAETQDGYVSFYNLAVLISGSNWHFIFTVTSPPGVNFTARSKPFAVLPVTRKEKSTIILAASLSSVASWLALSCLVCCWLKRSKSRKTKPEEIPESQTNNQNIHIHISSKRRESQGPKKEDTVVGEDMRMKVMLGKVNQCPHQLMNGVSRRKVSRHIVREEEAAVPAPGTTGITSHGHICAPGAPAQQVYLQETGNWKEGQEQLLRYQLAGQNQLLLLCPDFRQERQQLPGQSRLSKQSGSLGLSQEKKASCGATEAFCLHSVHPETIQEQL
# UniProt P42336, whole entry, looked up: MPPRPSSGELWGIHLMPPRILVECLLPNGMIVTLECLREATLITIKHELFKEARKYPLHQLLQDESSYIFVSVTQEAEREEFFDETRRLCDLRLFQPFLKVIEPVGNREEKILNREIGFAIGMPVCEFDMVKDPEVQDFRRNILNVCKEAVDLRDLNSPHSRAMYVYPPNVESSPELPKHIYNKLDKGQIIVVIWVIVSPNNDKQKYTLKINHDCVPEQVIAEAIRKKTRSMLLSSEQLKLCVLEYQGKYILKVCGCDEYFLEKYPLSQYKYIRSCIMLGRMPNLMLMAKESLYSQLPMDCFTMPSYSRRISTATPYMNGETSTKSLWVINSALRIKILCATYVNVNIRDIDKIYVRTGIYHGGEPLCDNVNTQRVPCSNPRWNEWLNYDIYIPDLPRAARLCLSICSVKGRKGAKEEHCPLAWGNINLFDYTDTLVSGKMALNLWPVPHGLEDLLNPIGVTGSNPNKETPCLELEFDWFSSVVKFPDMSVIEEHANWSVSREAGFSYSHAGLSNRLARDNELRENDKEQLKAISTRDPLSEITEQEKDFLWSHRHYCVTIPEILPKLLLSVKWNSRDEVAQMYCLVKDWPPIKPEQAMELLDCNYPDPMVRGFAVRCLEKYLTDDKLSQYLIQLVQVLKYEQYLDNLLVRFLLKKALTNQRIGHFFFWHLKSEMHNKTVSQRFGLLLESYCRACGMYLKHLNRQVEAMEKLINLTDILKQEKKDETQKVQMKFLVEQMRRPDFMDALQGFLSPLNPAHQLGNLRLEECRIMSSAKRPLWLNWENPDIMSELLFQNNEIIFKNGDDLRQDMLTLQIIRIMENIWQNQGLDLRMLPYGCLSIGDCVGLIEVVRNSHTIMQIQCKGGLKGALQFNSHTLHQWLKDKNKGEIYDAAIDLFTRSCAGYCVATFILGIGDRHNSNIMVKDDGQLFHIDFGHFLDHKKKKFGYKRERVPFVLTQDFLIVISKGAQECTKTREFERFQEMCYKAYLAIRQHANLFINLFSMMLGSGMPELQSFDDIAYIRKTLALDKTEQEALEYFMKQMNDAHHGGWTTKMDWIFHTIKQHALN
# UniProt P18669: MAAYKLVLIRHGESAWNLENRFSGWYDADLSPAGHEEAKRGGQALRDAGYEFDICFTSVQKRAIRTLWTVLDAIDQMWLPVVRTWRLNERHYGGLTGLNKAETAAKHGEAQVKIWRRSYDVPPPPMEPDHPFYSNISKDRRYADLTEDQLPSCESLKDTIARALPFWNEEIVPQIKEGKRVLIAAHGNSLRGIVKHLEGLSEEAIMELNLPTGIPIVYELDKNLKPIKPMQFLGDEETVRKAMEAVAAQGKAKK
# This is one part of the list.
# What was measured:
# Assay in all cases: log2 fold change, soluble protein after heating vs DMSO (PISA); higher = thermal stabilisation; K562 cells, 10 uM, 30 min; active = over 0.2 and 3.5 SD of the protein, either way, in both replicates (recomputed)
# [1] = compound: C1=CC=C(C=C1)[C@H](COC2=CC3=C(C=C2)NC(=O)N3)NC(=O)C4=CC=CN(C4=O)CC5=CC(=C(C=C5)F)F
# Outline: (§1)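 Quantification of soluble protein used TMTpro 16plex LC-MS/MS, with channel sums equalised. Samples were the supernatant after 21,000xg for 90 min of pooled aliquots from K562 cells (2×10^6 cells/mL) treated with 10 μM compound for 30 min, heated for 3 min over 48°C-58°C, and extracted in PBS with 0.5% NP-40 at 4°C. Values, from duplicates, describe thermal stability against control samples on a log2 fold-change scale.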
# [2] = compound: CC1=C(SC2=C1C(=N[C@H](C3=NN=C(N32)C)CC(=O)N)C4=CC=C(C=C4)Cl)C
# Outline: as §1
# [3] = compound: CC1=C2C(=CC=C1)N=C(N(C2=O)C3=CC=CC=C3C)CN4C=NC5=C(N=CN=C54)N
# Outline: as §1
# [4] = compound: Cc1sc2c(c1C)C(c1ccc(Cl)cc1)=N[C@@H](CC(=O)OC(C)(C)C)c1nnc(C)n1-2
# Outline: as §1
# [5] = compound: c1ccc([C@@H]2C[C@H]2NC2CCNCC2)cc1
# Outline: as §1
Target,log2 fold change [1],log2 fold change [2],log2 fold change [3],log2 fold change [4],log2 fold change [5]
PITPNB isoform 3 (UniProt P48739),inactive: -0.003,inactive: 0.054,inactive: 0.043,inactive: -0.021,inactive: -0.028
PIK3CD (UniProt O00329),inactive: -0.166,inactive: -0.126,active: 0.424,inactive: -0.086,inactive: 0.018
PEX26 (UniProt Q7Z412),,inactive: 0.076,inactive: 0.116,inactive: 0,inactive: 0.023
PLAUR (UniProt Q03405),,inactive: -0.08,,,inactive: -0.002
PHC2 isoform 5 (UniProt Q8IXK0),inactive: -0.103,inactive: -0.21,inactive: -0.093,,inactive: 0.267
PEX3 (UniProt P56589),,inactive: -0.166,inactive: -0.026,inactive: 0.012,inactive: -0.003
PKHD1 (UniProt P08F94),,,inactive: 0.175,,
PIK3CA (UniProt P42336),inactive: 0.017,inactive: -0.045,,,inactive: 0.181
PGAM1 (UniProt P18669),inactive: -0.002,inactive: 0.004,inactive: -0.015,inactive: -0.007,inactive: 0.006
PIGN (UniProt O95427),inactive: 0.15,inactive: -0.064,,inactive: 0.071,inactive: -0.101
PKLR (UniProt F8W6W2),inactive: -0.011,,inactive: -0.191,,

# Part of the list above, with bars between the fields.
Target | log2 fold change [1] | log2 fold change [2] | log2 fold change [3] | log2 fold change [4] | log2 fold change [5]
PKHD1 (UniProt P08F94) |  |  | inactive: 0.175 |  | 
PIK3CA (UniProt P42336) | inactive: 0.017 | inactive: -0.045 |  |  | inactive: 0.181
